Assay results published in PMC11005723, “Development of Complementary Photo‐arginine/lysine to Promote Discovery of Arg/Lys hPTMs Interactomes” (Advanced Science, 2024).
This continues a long series; more values of the same kind are listed elsewhere.

Tested on: HEK293T nuclear lysates
Test: SILAC‐based pull‐down proteomics H4K5acK8ac/H4K5 (probes 8/5)
Format: binding, human
Conditions: for B6 log2 (H4K5ac8ac/H4K5): run B6; for A6 log2 (H4K5ac8ac/H4K5): run A6
[1] = pulled-down protein FAM76B (F5GX09)
[2] = pulled-down protein FBXO22 (H3BTH6)
[3] = pulled-down protein FHL3 (Q13643)
[4] = pulled-down protein HSD17B10 (Q99714)
[5] = pulled-down protein LMNA (P02545)
[6] = pulled-down protein LRRC40 (Q9H9A6)
[7] = pulled-down protein MSH2 (P43246)
[8] = pulled-down protein MSH3 (A0A590UKC9)
[9] = pulled-down protein MYBL2 (P10244)
[10] = pulled-down protein NDRG1 (Q92597)
[11] = pulled-down protein NIPBL (A0A590UJS4)
[12] = pulled-down protein NTHL1 (P78549)
[13] = pulled-down protein NUDC (Q9Y266)
[14] = pulled-down protein NUDCD1 (Q96RS6)
[15] = pulled-down protein ORC3 (Q9UBD5)
[16] = pulled-down protein PAXIP1 (Q6ZW49)
[17] = pulled-down protein PCBP1 (Q15365)
[18] = pulled-down protein PFAS (O15067)
[19] = pulled-down protein PLS3 (A0A0A0MSQ0)
[20] = pulled-down protein PPIA (P62937)
[21] = pulled-down protein PRDX3 (P30048)
[22] = pulled-down protein PREP (P48147)
[23] = pulled-down protein PRPS1 (B1ALA9)
[24] = pulled-down protein RNF20 (Q5VTR2)
[25] = pulled-down protein ROCK2 (E9PF63)
[26] = pulled-down protein RPL24 (C9JXB8)
[27] = pulled-down protein SEPT7 (G3V1Q4)
[28] = pulled-down protein SERBP1 (Q8NC51)
[29] = pulled-down protein SH3PXD2B (A1X283)
[30] = pulled-down protein SLC25A5 (P05141)
[31] = pulled-down protein SLK (Q9H2G2)
[32] = pulled-down protein SMNDC1 (O75940)
[33] = pulled-down protein SUGT1 (Q9Y2Z0)
[34] = pulled-down protein THOP1 (P52888)
[35] = pulled-down protein TIPRL (O75663)
[36] = pulled-down protein TMPO (P42166)
[37] = pulled-down protein TUBB2B (Q9BVA1)
[38] = pulled-down protein TUFM (P49411)
[39] = pulled-down protein TXN (P10599)
[40] = pulled-down protein U2SURP (E7ET15)
[41] = pulled-down protein UQCRC1 (P31930)
[42] = pulled-down protein VIM (P08670)
[43] = pulled-down protein XPO1 (O14980)
[44] = pulled-down protein YEATS4 (F8W0J4)
[45] = pulled-down protein ZC3H4 (M0QY97)

## probe 8: H4K5acK8ac peptide probe with photo‐arginine R(dz) and K(biotin) (SGRGKGGKGLGKGGK; photo-arginine R(dz) at 3; acetyl-lysine at 5; acetyl-lysine at 8; K(biotin) at 15)
pulled-down protein EZR (E7EQR4)
  B6 log2 (H4K5ac8ac/H4K5): 0.5872
[1]
  A6 log2 (H4K5ac8ac/H4K5): 0.05077
  B6 log2 (H4K5ac8ac/H4K5): 0.8339
[2]
  A6 log2 (H4K5ac8ac/H4K5): 0.4487
  B6 log2 (H4K5ac8ac/H4K5): 0.9654
[3]
  A6 log2 (H4K5ac8ac/H4K5): 0.5624
  B6 log2 (H4K5ac8ac/H4K5): 1.039
[4]
  A6 log2 (H4K5ac8ac/H4K5): 0.9255
  B6 log2 (H4K5ac8ac/H4K5): 0.6778
[5]
  A6 log2 (H4K5ac8ac/H4K5): 0.4719
  B6 log2 (H4K5ac8ac/H4K5): 0.6262
[6]
  A6 log2 (H4K5ac8ac/H4K5): 0.5921
  B6 log2 (H4K5ac8ac/H4K5): 0.6614
[7]
  A6 log2 (H4K5ac8ac/H4K5): 0.1218
  B6 log2 (H4K5ac8ac/H4K5): 1.07
[8]
  A6 log2 (H4K5ac8ac/H4K5): 0.4319
  B6 log2 (H4K5ac8ac/H4K5): 0.628
[9]
  A6 log2 (H4K5ac8ac/H4K5): -0.2371
  B6 log2 (H4K5ac8ac/H4K5): 1.076
[10]
  A6 log2 (H4K5ac8ac/H4K5): -0.08023
  B6 log2 (H4K5ac8ac/H4K5): 0.8519
[11]
  A6 log2 (H4K5ac8ac/H4K5): 0.8853
  B6 log2 (H4K5ac8ac/H4K5): 0.5454
[12]
  A6 log2 (H4K5ac8ac/H4K5): 0.4814
  B6 log2 (H4K5ac8ac/H4K5): 2.0452
[13]
  A6 log2 (H4K5ac8ac/H4K5): 0.8034
  B6 log2 (H4K5ac8ac/H4K5): 0.5747
[14]
  A6 log2 (H4K5ac8ac/H4K5): 1.864
  B6 log2 (H4K5ac8ac/H4K5): 0.5692
[15]
  A6 log2 (H4K5ac8ac/H4K5): 0.9501
  B6 log2 (H4K5ac8ac/H4K5): 0.5852
[16]
  A6 log2 (H4K5ac8ac/H4K5): -0.6594
  B6 log2 (H4K5ac8ac/H4K5): 1.242
[17]
  A6 log2 (H4K5ac8ac/H4K5): 0.5482
  B6 log2 (H4K5ac8ac/H4K5): 0.5681
[18]
  A6 log2 (H4K5ac8ac/H4K5): 0.7266
  B6 log2 (H4K5ac8ac/H4K5): 0.6378
[19]
  A6 log2 (H4K5ac8ac/H4K5): 0.6997
  B6 log2 (H4K5ac8ac/H4K5): 0.7142
[20]
  A6 log2 (H4K5ac8ac/H4K5): 0.4131
  B6 log2 (H4K5ac8ac/H4K5): 0.5572
[21]
  A6 log2 (H4K5ac8ac/H4K5): 0.2174
  B6 log2 (H4K5ac8ac/H4K5): 0.6425
[22]
  A6 log2 (H4K5ac8ac/H4K5): 0.9426
  B6 log2 (H4K5ac8ac/H4K5): 0.9988
[23]
  A6 log2 (H4K5ac8ac/H4K5): 0.3703
  B6 log2 (H4K5ac8ac/H4K5): 0.6924
[24]
  A6 log2 (H4K5ac8ac/H4K5): 0.2058
  B6 log2 (H4K5ac8ac/H4K5): 1.917
[25]
  A6 log2 (H4K5ac8ac/H4K5): 0.5783
  B6 log2 (H4K5ac8ac/H4K5): 0.8707
[26]
  A6 log2 (H4K5ac8ac/H4K5): -1.085
  B6 log2 (H4K5ac8ac/H4K5): 0.6319
[27]
  A6 log2 (H4K5ac8ac/H4K5): 0.404
  B6 log2 (H4K5ac8ac/H4K5): 1.872
[28]
  A6 log2 (H4K5ac8ac/H4K5): 0.7316
  B6 log2 (H4K5ac8ac/H4K5): 0.5964
[29]
  A6 log2 (H4K5ac8ac/H4K5): 0.8304
  B6 log2 (H4K5ac8ac/H4K5): 0.5788
[30]
  A6 log2 (H4K5ac8ac/H4K5): 0.5514
  B6 log2 (H4K5ac8ac/H4K5): 0.5877
[31]
  A6 log2 (H4K5ac8ac/H4K5): 0.3398
  B6 log2 (H4K5ac8ac/H4K5): 0.9615
[32]
  A6 log2 (H4K5ac8ac/H4K5): 0.6849
  B6 log2 (H4K5ac8ac/H4K5): 0.8242
[33]
  A6 log2 (H4K5ac8ac/H4K5): 0.8993
  B6 log2 (H4K5ac8ac/H4K5): 0.8405
[34]
  A6 log2 (H4K5ac8ac/H4K5): 0.4884
  B6 log2 (H4K5ac8ac/H4K5): 0.5905
[35]
  A6 log2 (H4K5ac8ac/H4K5): 0.6781
  B6 log2 (H4K5ac8ac/H4K5): 0.7898
[36]
  A6 log2 (H4K5ac8ac/H4K5): 0.9296
  B6 log2 (H4K5ac8ac/H4K5): 0.7162
[37]
  A6 log2 (H4K5ac8ac/H4K5): 0.3511
  B6 log2 (H4K5ac8ac/H4K5): 0.679
[38]
  A6 log2 (H4K5ac8ac/H4K5): 0.744
  B6 log2 (H4K5ac8ac/H4K5): 0.6748
[39]
  A6 log2 (H4K5ac8ac/H4K5): 1.055
  B6 log2 (H4K5ac8ac/H4K5): 0.9516
[40]
  A6 log2 (H4K5ac8ac/H4K5): -0.3687
  B6 log2 (H4K5ac8ac/H4K5): 1.451
[41]
  A6 log2 (H4K5ac8ac/H4K5): 0.6791
  B6 log2 (H4K5ac8ac/H4K5): 0.7579
[42]
  A6 log2 (H4K5ac8ac/H4K5): 0.6046
  B6 log2 (H4K5ac8ac/H4K5): 0.5917
[43]
  A6 log2 (H4K5ac8ac/H4K5): 0.481
  B6 log2 (H4K5ac8ac/H4K5): 0.5985
[44]
  A6 log2 (H4K5ac8ac/H4K5): 2.181
  B6 log2 (H4K5ac8ac/H4K5): 2.927
[45]
  A6 log2 (H4K5ac8ac/H4K5): -0.08627
  B6 log2 (H4K5ac8ac/H4K5): 1.141
